Data: PubChem BioAssay AID504834 (National Center for Advancing Translational Sciences (NCATS), 2011)
Hit rate of the full screen: of about 320,000 compounds, about 22,000 (6.9%) were called active. This list was built around the results that the source calls inconclusive (neither active nor inactive); the mix of calls is not that of the screen. Calls come from the whole dose curve; as a rule, active = well fitted inhibition curve with a large enough effect; inconclusive = small, poorly fitted or top-dose-only effect, or another doubt; inactive = no such curve, though single readings can be large or run the other way. Potencies beside an inconclusive call are fits to weak or partial responses and may not hold up.

Assay: Primary qHTS for delayed death inhibitors of the malarial parasite plastid, 96 hour incubation
Conditions: P. falciparum luciferase reporter growth; series mostly up to 28.7 µM; activity change, negative = inhibition: at the top concentration
How it was run: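 Parasite growth measured via integrated firefly luciferase reporter in P. falciparum. Infected erythrocytes at 2% hematocrit, 0.05% parasitemia final were treated 96 hours at 37 C under 5% CO2, and luminescence was read.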
% is set by controls: 0 for no effect and ±100 for the full control effect; potency is the fitted concentration of half-maximal effect.

Which Potency does the source give for `Cc1ccccc1OCc1nnc(SCC(=O)Nc2ccc(N3CCOCC3)c(Cl)c2)n1C` here?
Its Potency is inconclusive: 16.5 µM [inhibitor, partial curve].

For `O=C(C1CCCN(S(=O)(=O)c2cccnc2)C1)N1CCn2c1nc1ccccc12` (centres undefined), which Potency is on record?
The Potency was inconclusive: 18.5 µM [inhibitor, single point].

For `Cc1ccc2c(COC(=O)C3=COCCO3)cc(=O)oc2c1`, which Potency is on record?
Its Potency is inconclusive: 16.5 µM [inhibitor, partial curve, poor fit].

For `COc1ccc(Cl)cc1NC(=S)N(CCN1CCOCC1)C1CCN(C(C)=O)CC1`, which Potency is on record?
The Potency was inconclusive: 14.7 µM [inhibitor, partial curve, poor fit].

For `CCCCn1c(N)c(N(CCC(C)C)C(=O)CSc2nncn2-c2ccccc2)c(=O)[nH]c1=O`, which “activity change, negative = inhibition” value is on record?
Its value is inactive: 56.3%.

For `O=C1C=C(c2ccccc2)C[C@H](c2cccs2)[C@H]1n1nnc([N+](=O)[O-])n1`, which Potency is on record?
The Potency was active: 8.28 µM.

Which Potency does the source give for `Cc1cccc(OCc2n[nH]c(=S)o2)c1` here?
The Potency was inconclusive: 0.828 µM [inhibitor, full curve, poor fit].

With `CCOC(=O)c1ccc(C(=O)OCC)c(NC(=S)Nc2ccc([N+](=O)[O-])cc2OC)c1` as the compound, how does the Potency read?
The Potency was active: 2.94 µM.

Which Potency does the source give for `CC(=O)N1CCN(C2=NC(=O)/C(=C/c3ccc(OS(=O)(=O)c4ccccc4)cc3)S2)CC1` here?
The Potency was inconclusive: 18.5 µM [inhibitor, single point].

For `CC(C)=CCN1CCN(Cc2cc(F)ccc2-n2nc(C)cc2C)CC1CCO` (centres undefined), which Potency is on record?
Its Potency is inconclusive: 16.5 µM [inhibitor, single point].

For `COc1cccc(C(=O)Nc2c[nH]c(=O)[nH]c2=O)c1`, which “activity change, negative = inhibition” value is on record?
Its value is inactive: 29.1%.

With `O=C(O)CN(c1ccccc1[N+](=O)[O-])S(=O)(=O)c1ccccc1` as the compound, how does the “activity change, negative = inhibition” value read?
The value was inactive: 65.8%.

With `Cc1cc(C)c(NC(=O)CSc2ccc3nnc(CCNC(=O)c4ccccc4)n3n2)c(C)c1` as the compound, how does the Potency read?
Its Potency is inconclusive: 14.7 µM [inhibitor, single point].

Which “activity change, negative = inhibition” value does the source give for `Cc1occc(=O)c1OCc1c(Cl)cccc1Cl` here?
The value was inactive: -28.6%.

Which “activity change, negative = inhibition” value does the source give for `COC(=O)c1ccc(OC)c(CN2CCCN(Cc3ccc(F)cc3)S2(=O)=O)c1` here?
The value was inactive: 6.27%.

For `O=P(c1ccccc1)(c1ccccc1)C(c1ccco1)N1CCOCC1` (centres undefined), which Potency is on record?
The Potency was inconclusive: 10.4 µM [inhibitor, single point].

For `COc1ccc(CN(Cc2ccc(OC)cc2)S(=O)(=O)c2ccc(-n3cnnn3)c(C)c2)cc1`, which Potency is on record?
Its Potency is active: 13.1 µM.

Which Potency does the source give for `Cc1cc2cc3c(cc2nc1SCC(=O)N1CCCC1)OCCO3` here?
The Potency was inconclusive: 11.7 µM [inhibitor, single point].

Which Potency does the source give for `CCN=C1Cn2c(nc3scc(-c4ccccc4)c3c2=O)CN1CC` here?
The Potency was inconclusive: 18.5 µM [inhibitor, single point].

Which “activity change, negative = inhibition” value does the source give for `COc1ccc(NC(=O)Cc2ccc(-c3ccccc3)cc2)cn1` here?
Its value is inactive: -4.29%.

With `CC(C)(C)NC(=O)c1ccc2c(c1)N(CC(=O)N1CCCC1)C(=O)C(C)(C)O2` as the compound, how does the Potency read?
Its Potency is inconclusive: 18.5 µM [inhibitor, single point].

For `CCOC(=O)C1CCCN(C(=O)c2cc(S(=O)(=O)N3CCCCC3)ccc2Cl)C1` (centres undefined), which Potency is on record?
Its Potency is active: 10.4 µM.

For `Cc1ccccc1-n1ncc(C(C)NS(=O)(=O)c2sccc2C)c1C` (centres undefined), which Potency is on record?
Its Potency is inconclusive: 18.5 µM [inhibitor, single point].

Which “activity change, negative = inhibition” value does the source give for `COc1cc(C(=O)OCc2cc(=O)oc3c(C)c(C)ccc23)ccc1OC(F)F` here?
Its value is inactive: 36.4%.

Which Potency does the source give for `Cc1cc2occ(CC(=O)N(CCC(C)C)c3c(N)n(Cc4ccccc4)c(=O)[nH]c3=O)c2cc1C` here?
The Potency was inconclusive: 0.586 µM [inhibitor, full curve, poor fit].

For `CCOC(=O)c1cccc(NC(=S)NC(=O)c2cccnc2)c1`, which Potency is on record?
Its Potency is inconclusive: 18.5 µM [inhibitor, single point].

For `CC1Cc2ccccc2N1CC(=O)Nc1ccc(N2CCOCC2)cc1` (centres undefined), which “activity change, negative = inhibition” value is on record?
Its value is inactive: -13.1%.

For `COc1cccc(C2=CC(c3ccc(C)cc3)n3ncnc3N2)c1` (centres undefined), which “activity change, negative = inhibition” value is on record?
The value was inactive: 46.2%.

With `C/C(=N\NC(=O)c1ccn(C)n1)c1ccco1` as the compound, how does the Potency read?
The Potency was inconclusive: 5.22 µM [inhibitor, partial curve].

For `Cc1cc(C(=O)Nc2ccccc2)c2ccccc2n1`, which Potency is on record?
The Potency was active: 13.1 µM.

For `COc1ccc(/C=C2\SC(=O)N(CCNC(=O)C3CSC4(C)CCC(=O)N34)C2=O)cc1` (centres undefined), which Potency is on record?
Its Potency is inconclusive: 3.29 µM [inhibitor, full curve].

For `Cc1onc(-c2ccccc2)c1C(=O)N/N=C/c1ccc(O)c([N+](=O)[O-])c1`, which Potency is on record?
Its Potency is inconclusive: 18.5 µM [inhibitor, single point].

For `COCCn1c(C)nnc1SCC(=O)NNC(=O)c1ccc(Cl)cc1`, which “activity change, negative = inhibition” value is on record?
The value was inactive: 16.2%.

Which Potency does the source give for `COc1ccc(OCCn2c(N)nc3ccccc32)cc1` here?
Its Potency is inconclusive: 18.5 µM [inhibitor, single point].

Which “activity change, negative = inhibition” value does the source give for `NS(=O)(=O)c1ccc(NC(=S)Nc2ccc(S(=O)(=O)N3CCCC3)cc2)cc1` here?
The value was inactive: 19%.

Which Potency does the source give for `CCCn1c(/N=C/c2ccccc2O)nc2ccccc21` here?
The Potency was inconclusive: 0.828 µM [inhibitor, full curve, poor fit].

With `Cc1cc(Cl)ccc1NC(=O)CN1CCC(C(O)(c2ccccc2)c2ccccc2)CC1` as the compound, how does the Potency read?
The Potency was inconclusive: 10.4 µM [inhibitor, single point].

For `CCCNC(=O)CSc1nccn1Cc1ccc(OC)cc1`, which Potency is on record?
The Potency was inconclusive: 0.131 µM [inhibitor, full curve, poor fit].

For `CC(C)NS(=O)(=O)c1ccc(OCC(=O)N2CCCC2)cc1`, which Potency is on record?
The Potency was inconclusive: 9.28 µM [inhibitor, partial curve].

For `Cc1cccc(OCC(=O)NNC(=O)C2CCN(c3ncnc4sc(C)c(C)c34)CC2)c1`, which “activity change, negative = inhibition” value is on record?
The value was inactive: 0%.

With `CC(CN1C(C)CCCC1C)OC(=O)c1ccccc1Br` (centres undefined) as the compound, how does the Potency read?
The Potency was inconclusive: 9.28 µM [inhibitor, single point].

For `COc1ccc(Cl)cc1N(C(=O)Nc1cccc(Cl)c1)C1=NCC(C)S1` (centres undefined), which Potency is on record?
Its Potency is inconclusive: 9.28 µM [inhibitor, partial curve].

Which Potency does the source give for `Fc1ccc(Br)cc1C1C=C(c2ccc(Br)cc2)Nc2ncnn21` (centres undefined) here?
The Potency was inconclusive: 10.4 µM [inhibitor, partial curve, poor fit].

With `Cc1ccc2cc(C#N)c(SCC(=O)N3CCCc4ccccc43)nc2c1` as the compound, how does the Potency read?
The Potency was inconclusive: 16.5 µM [inhibitor, single point].

For `Cc1ccc(S(=O)(=O)NCc2ccccc2)cc1C(=O)N1CCN(c2ccccc2)CC1`, which Potency is on record?
The Potency was inconclusive: 2.62 µM [inhibitor, full curve].

For `Cc1nnc(SCc2cn3ccsc3n2)n(N)c1=O`, which “activity change, negative = inhibition” value is on record?
Its value is inactive: 6.37%.

For `COc1ccc(CCNC(=O)CC(=O)N/N=C/c2ccc(C(=O)O)cc2)cc1OC`, which “activity change, negative = inhibition” value is on record?
The value was inactive: 22.3%.

For `Cc1ccc(NC(=O)CN(C)S(=O)(=O)c2ccc3[nH]c(=O)oc3c2)c(C)c1`, which Potency is on record?
Its Potency is inconclusive: 18.5 µM [inhibitor, single point].

For `C/C(=N\Nc1nc(N2CCOCC2)nc(N2CCOCC2)n1)c1cccs1`, which “activity change, negative = inhibition” value is on record?
The value was inactive: -22.3%.

With `O=C(Cc1ccsc1)NNC(=O)c1cccc(Cl)c1` as the compound, how does the “activity change, negative = inhibition” value read?
Its value is inactive: 7.75%.

Which Potency does the source give for `Cc1ccc(-n2[nH]c(C)c(/C=N/Nc3ccc([N+](=O)[O-])cc3[N+](=O)[O-])c2=O)cc1C` here?
The Potency was inconclusive: 9.28 µM [inhibitor, single point].

Which Potency does the source give for `NCCCC(=O)OC1N=C(c2ccccc2Cl)c2cc(Br)ccc2NC1=O` (centres undefined) here?
Its Potency is inconclusive: 13.1 µM [inhibitor, partial curve].

With `CN[C@H]1[C@H](O)[C@@H](O[C@@H]2[C@H](O)[C@@H](O[C@H]3OC(CN)=CC[C@H]3N)[C@@H](N)C[C@H]2N)OC[C@@]1(C)O` as the compound, how does the “activity change, negative = inhibition” value read?
Its value is inactive: -13.5% [at 12.8 µM].

For `O=C(NC1CCCCC1)c1cc(C(=O)c2ccccc2Br)c[nH]1`, which Potency is on record?
The Potency was inconclusive: 9.28 µM [inhibitor, partial curve, poor fit].

Which Potency does the source give for `O=C(O)c1cc(-c2ccc3c(c2)OCCO3)n[nH]1` here?
The Potency was inconclusive: 0.415 µM [inhibitor, partial curve, poor fit].

For `CC1CC(=O)N(CC(=O)NCc2ccc(F)cc2)c2ccccc2S1(=O)=O` (centres undefined), which “activity change, negative = inhibition” value is on record?
The value was inactive: 17.6%.

For `Cc1ccc([C@@H]2[C@@H]3C(=O)N(C)C(=O)[C@@H]3[C@]3(C)C(=O)N(CC4CC4)CC(=O)N23)o1`, which Potency is on record?
The Potency was inconclusive: 2.33 µM [inhibitor, single point].

Which “activity change, negative = inhibition” value does the source give for `O=c1[nH]nc(Cc2ccccc2)c2ccccc12` here?
The value was inactive: -18.7%.

For `O=C(CSc1nnc2c(n1)[nH]c1ccc(S(=O)(=O)N3CCOCC3)cc12)Nc1ccc(F)c(F)c1`, which Potency is on record?
The Potency was inconclusive: 18.5 µM [inhibitor, single point].

Which Potency does the source give for `CC1(C)CC(=O)C(C=NCCN2CCN(C(=S)Nc3ccc(F)cc3)CC2)=C(O)C1` here?
The Potency was inconclusive: 10.4 µM [inhibitor, single point].

With `Cc1ccc(N2C(=O)Nc3ccccc3S2(=O)=O)cc1Cl` as the compound, how does the Potency read?
The Potency was inconclusive: 9.28 µM [inhibitor, single point].

With `CCN(Cc1cnn(C)c1)Cc1nc(C(c2ccccc2)c2ccccc2)no1` as the compound, how does the “activity change, negative = inhibition” value read?
Its value is inactive: 29.7%.

Which Potency does the source give for `COc1ccccc1CNC(=O)C1CSC2(C)CCC(=O)N12` (centres undefined) here?
Its Potency is inconclusive: 11.7 µM [inhibitor, single point].

Which “activity change, negative = inhibition” value does the source give for `Cc1cc(C)c2c(N)c(C(=O)c3ccc(Br)cc3)oc2n1` here?
The value was inactive: 15%.

For `CCOC(=O)N1CCC(NC(=O)c2cc(COc3ccccc3SC)on2)CC1`, which Potency is on record?
The Potency was inconclusive: 18.5 µM [inhibitor, single point].

Which Potency does the source give for `O=C(COc1ccc2ccc(=O)oc2c1)N1CC[C@@]2(O)CCCC[C@H]2C1` here?
The Potency was inconclusive: 18.5 µM [inhibitor, single point].

With `Cc1ccc(N2CC(=O)N(CC(=O)O)C2=O)cc1` as the compound, how does the Potency read?
Its Potency is inconclusive: 18.5 µM [inhibitor, single point].

For `NCC(=O)NNC(=O)OCC1c2ccccc2-c2ccccc21`, which Potency is on record?
Its Potency is inconclusive: 9.28 µM [inhibitor, single point].

With `NC(=O)NC(Cc1ccccc1)C(=O)N1CCN(S(=O)(=O)c2ccc(Cl)cc2)CC1` (centres undefined) as the compound, how does the Potency read?
Its Potency is inconclusive: 5.86 µM [inhibitor, partial curve].
